Values quoted from earlier work as cited in publication PMC5405622 (Drug Metabolism Letters, 2016).

Test system: cryo-preserved rat hepatocytes
Conditions: cited from earlier work

For `CC(C)c1c(C(=O)Nc2ccccc2)c(-c2ccccc2)c(-c2ccc(F)cc2)n1CC[C@@H](O)C[C@@H](O)CC(=O)O` [atorvastatin, reference compound], the “Uptake rate (CLint, influx)” value is listed as 12.6 mL/min/g of liver.
